Laboratory results as given in PubChem BioAssay AID1487 (National Center for Advancing Translational Sciences (NCATS), 2009).
Some of the results follow. Shown are side measurements of this screen, not its main read-out; they come without a call. Compounds called inactive in the main read-out are mostly missing here. The note in brackets gives the kind of curve behind each potency; many fits are weak.

Assay: qHTS Assay for Modulators of Lamin A Splicing
Settings: HeLa LMNA splicing GFP/RFP minigene ratio, 48 h
Description: NCGC Assay Overview: Hutchinson-Gilford Progeria Syndrome (HGPS) is a pediatric premature aging disease caused by a spontaneous mutation in the lamin A/C (LMNA) gene. The mutation activates a cryptic splice site in the LMNA pre-mRNA which results in production of a pre-lamin A protein that cannot be processed properly. The mutant protein accumulates in the nucleus and negatively affects numerous cellular functions. Correction of the splicing defect in HGPS patient cells using a targeted oligonucleotide (exo11) leads to reversal of the cellular disease phenotypes. To identify small molecule modulators of aberrant LMNA splicing, a homogenous assay was constructed in HeLa cells that used a GFP containing minigene to report on correction of aberrant splicing in lamin A and a RFP (DsRed2) to report on cell viability, uniformity and nonspecific effects on the assay signal. This assay was adapted to laser-scanning microplate cytometry (Acumen, TTP Labtech) where miniaturization of the assay to a 1,536-well plate format was possible. References: Bowen, W. P.; Wylie, P. G. Application of Laser-Scanning Fluorescence Microplate Cytometry in High Content Screening. Assay Drug Dev Technol 2006;4:209-221. Scaffidi P, Misteli T. Reversal of the cellular phenotype in the premature aging disease Hutchinson-Gilford progeria syndrome. Nat.
NCGC Assay Protocol Summary: Reagents/Controls: Stable clones expressing DsRed2 and lamin A-EGFP were generated by Cell and Molecular Technologies in S3 HeLa cells. HeLa cells were prepared for the assay when they were 70-90% confluent. The cells were counted and resuspended in Opti-MEM I (no phenol red; Gibco), 2% FBS, 1% penicillin/ streptomycin (Gibco) at concentration of 120 cells/uL concentration. The suspension was passed through a Falcon basket filter with pore size 40um (Beckton Dickson). Control titrations: column […] 1536-well plate contained a sixteen point titration (1:2 dilutions) in duplicate of ancitabine (Sigma: A8598) beginning at 40 uM final concentration. Column 2 contained a sixteen point titration (1:2 dilutions) of cycloheximide beginning at 1.4 mM final concentration. Column 3 contained ancitabine at 40 uM and column 4 contained was the vehicle control (0.5% DMSO final concentration). Assay Steps: 5 uL of HeLa cells were plated in Aurora LoBase black clear bottom (cyclic-olefin polymer) 1536-well plates at a final density of 600 cells/well. Controls and library compounds were added with a 1536-well pin array using the Kalypsys pin-tool. The plates were then incubated for 48 hrs in a cell-culture incubator (37 °C; 5% CO2, 98% humidity). Following incubation the plates were read on the Acumen Explorer using the 488 nm laser. Data was collected on objects between 10 and 100 um in size. Cell objects were defined by a 15 um width x 10 um depth filter. The ratio of the total object intensity in PMT1 (500-530 nm emission; GFP) over PMT3 (575-640 nm emission; RFP) was calculated for analysis. Keywords: NIH Roadmap, MLSCN, MLI, MLSMR, qHTS, NCGC, lamin A, Progeria, RNA splicing.

[1] = measured here: GFP splicing reporter channel
[2] = measured here: RFP viability control channel

Compound | AC50 [1] | AC50 [2]
O=C(/C=C/c1ccccc1[N+](=O)[O-])NCc1ccc(Cl)cc1 | 0.0112 µM [rising, full curve, poor fit] | –
Cc1ccc2c(c1)Oc1ccccc1C=C2C(=O)O | – | 0.0891 µM [falling, full curve]
O=C(Cc1ccc2c(c1)OCCO2)N1CCN(S(=O)(=O)c2ccccc2C(F)(F)F)CC1 | 11.2 µM [rising, single point] | 17.8 µM [rising, single point]
COC(=O)c1c(NS(=O)(=O)c2ccc3ccccc3c2)sc2c1CCCC2 | – | 17.8 µM [rising, single point]
COc1ccc(C2CC(=O)c3c(C)nc(N4CCN(Cc5ccccc5)CC4)nc3C2)cc1OC (configuration not stated) | 0.631 µM [rising, partial curve, poor fit] | 4.47 µM [rising, full curve]
O=c1c(-c2ccc(F)cc2)nc2cnc(N3CCNCC3)nc2n1Cc1cccs1 | 17.8 µM [falling, partial curve] | 15.8 µM [falling, partial curve]
Cc1cc(Cl)n2c(nc3cc(F)c(F)cc32)c1C#N | 0.0398 µM [falling, full curve, poor fit] | 3.16 µM [falling, full curve]
COc1ccc(-c2nnn(CC(=O)NCc3ccccc3)n2)cc1OC | 31.6 µM [rising, single point] | 20 µM [rising, single point]
O=C(c1cc(-c2ccco2)nc2ccccc12)N1CCN(c2ccc(F)cc2)CC1 | – | 11.2 µM [rising, single point]
O=C1C=C(N2CCOCC2)C2(CCCCC2)O1 | 22.4 µM [falling, single point] | 25.1 µM [falling, single point]
c1ccc2c(c1)CCN(c1nc(CN3CCOCC3)nc3sc4c(c13)CCCC4)C2 | – | 35.5 µM [rising, single point]
CSCC[C@H](NC(=O)COc1ccc(Cl)cc1)c1nc2ccccc2[nH]1 | – | 20 µM [rising, single point]
Cc1ccc(Cc2nc3ccccc3nc2SCC(=O)N2CCN(c3ccc(F)cc3)CC2)cc1 | – | 5.62 µM [falling, partial curve]
Cc1cccc(OCCCC(=O)Nc2ccc(Br)cc2)c1 | – | 35.5 µM [rising, single point]
Cc1ccc(Nc2cc(C)nn2-c2nc(C)cc(C)n2)cc1 | 14.1 µM [rising, partial curve] | 10 µM [rising, partial curve]
O=C(Nc1cn(-c2ccccc2)nc1-c1ccccc1)c1ccccc1 | – | 35.5 µM [rising, single point]
C=CCOc1c(OC)cc(/C=N/Nc2cccc(C(=O)O)c2)c(Br)c1Br | 5.62 µM [rising, partial curve, poor fit] | –
O=C(NNC(=O)c1cccnc1SCc1cccc([N+](=O)[O-])c1)c1ccc(F)cc1 | – | 15.8 µM [rising, partial curve]
COC(=O)CCCNC(=O)c1ccc2[nH]c(C)c(C)c2c1 | – | 5.62 µM [falling, single point]
CCOc1ccccc1COC(=O)c1cccc(-n2cnnn2)c1 | – | 7.08 µM [rising, single point]

Compound | AC50 [1] | AC50 [2]
N/C(CSc1ccc(Cl)cc1)=N\S(=O)(=O)c1ccc(Cl)cc1 | – | 0.0112 µM [falling, full curve, poor fit]
CCCCCCC(=O)Nc1nc(C)c(-c2csc(Nc3cccc(OC)c3)n2)s1 | – | 20 µM [rising, single point]
NC(=O)NC(=O)CSc1nc(C2CCCCC2)n(-c2ccccc2)n1 | – | 0.316 µM [rising, full curve, poor fit]
CCc1c(C(=O)NNC(=S)NC2CCCCC2)csc1C | 5.62 µM [rising, single point] | –
Cn1cc(S(=O)(=O)Oc2ccccc2)c(=O)n(C)c1=O | – | 0.447 µM [falling, full curve]
CCC1CCCCN1C(=O)COc1c(Br)cc(Br)c2cccnc12 (configuration not stated) | 15.8 µM [rising, partial curve, poor fit] | 15.8 µM [rising, partial curve]
O=C(CSC(=S)N1CCCC1)c1cc(Br)cc(Br)c1O | – | 35.5 µM [rising, single point]
COc1ccc(NC(=O)c2ccc(C(=O)c3ccccc3)o2)cc1 | 5.62 µM [rising, partial curve, poor fit] | 15.8 µM [rising, single point]
COc1ccc2c(c1)CC/C(=C/c1ccncc1)C2=O | – | 6.31 µM [rising, full curve]
C=CCNC(=O)c1c(N)n(-c2cccc(S(N)(=O)=O)c2)c2nc3ccccc3nc12 | 7.94 µM [rising, partial curve, poor fit] | 10 µM [rising, partial curve]
O=C(NCc1ccccc1)c1ccc(C2SCC(=O)N2Cc2ccccc2)cc1 (configuration not stated) | – | 22.4 µM [rising, single point]
Cc1ccc(S(=O)(=O)Nc2ccccc2C=Nc2cccc(C)c2C)cc1 | – | 35.5 µM [rising, single point]
Cc1ccc(Cn2ccnc2SCC(=O)Nc2nc3ccccc3s2)cc1 | 17.8 µM [falling, partial curve, poor fit] | 1.12 µM [falling, full curve, poor fit]
O=C(NNC(=O)C1CC2CCC1C2)c1sc2ccccc2c1Cl (configuration not stated) | – | 35.5 µM [rising, single point]
CCOc1ccccc1NC(=O)Nc1ccc(Cl)cc1 | – | 15.8 µM [rising, single point]
CCN=c1sc(C(=O)NCCc2ccccc2)cc(=O)n1CC | – | 14.1 µM [rising, single point]
Cc1cc(C(=O)CSc2nnc3ccccn23)c(C)n1-c1ccccc1 | – | 22.4 µM [rising, single point]
COc1ccc(-c2[nH]c(-c3ccc(F)cc3)nc2SCC(=O)NC2CCCC2)cc1 | – | 11.2 µM [rising, partial curve]
CCN1CN=C(NS(=O)(=O)c2ccc(C)cc2)NC1 | 0.00501 µM [falling, full curve, poor fit] | 0.00501 µM [falling, full curve, poor fit]
CCn1cc(C(=O)O)c(=O)c2cc(F)c(N3CCN(C(=O)Nc4ccccc4)CC3)cc21 | 15.8 µM [falling, partial curve] | 14.1 µM [rising, partial curve]

Compound | AC50 [1] | AC50 [2]
COc1cccc(OCCSc2nc(N)cc(N)n2)c1 | – | 14.1 µM [rising, single point]
CCOC(=O)N1CCN(C(=O)COc2cccc3c2CCN(Cc2ccc(F)cc2)C3=O)CC1 | – | 11.2 µM [rising, partial curve, poor fit]
Cc1ccc(S(=O)(=O)c2c(C)nn(C(C)(C)C)c2OC(=O)c2ccco2)cc1 | – | 10 µM [rising, partial curve]
CCCN1CCN(c2ncnc3sc(C(=O)Nc4c(C)cc(C)cc4C)c(C)c23)CC1 | 1.78 µM [falling, partial curve, poor fit] | 0.0447 µM [falling, full curve, poor fit]
Cc1nc(C)c(/C(O)=C/c2nc3ccccc3oc2=O)s1 | – | 11.2 µM [rising, partial curve]
COc1ccc(Nc2oc(COc3ccc(C)cc3)nc2C#N)cc1 | – | 31.6 µM [rising, single point]
O=C(Nc1cccc(Cl)c1)NC1CC2CCC(C1)N2Cc1cccs1 (configuration not stated) | 4.47 µM [falling, partial curve, poor fit] | –
O=C(c1ccc2c(c1)OCCO2)C1CCN(C(=O)c2ccc(F)c(F)c2)CC1 | 12.6 µM [rising, partial curve] | 25.1 µM [rising, single point]
CCOC(=O)/C(C#N)=C\c1c(OCC)n(CC)c2ccccc12 | – | 12.6 µM [rising, single point]
O=C(c1cc2cc(Br)ccc2o1)N1CCCC1 | 2.82 µM [rising, single point] | –
Cn1nc(C(F)(F)F)c(C(=O)Nc2ccc(F)cc2F)c1Oc1cccc(Cl)c1 | 8.91 µM [rising, partial curve] | 11.2 µM [rising, partial curve]
O=C(Nc1nc(-c2ccccc2)cs1)C1CCCCN1S(=O)(=O)c1ccccc1 (configuration not stated) | – | 14.1 µM [rising, partial curve]
CCOC(=O)N1CCC(NC(=O)C2CCCN(C(=O)c3cc4sccc4n3C)C2)CC1 (configuration not stated) | – | 20 µM [rising, partial curve, poor fit]
CC(Oc1ccc(Cl)cc1Cl)C(=O)NCCCCc1ccccc1 (configuration not stated) | 11.2 µM [rising, partial curve] | 22.4 µM [rising, partial curve]
Nc1ccc(S(=O)(=O)Nc2ccc(Cl)nn2)cc1 | – | 0.0141 µM [rising, full curve, poor fit]
COc1ccc(OC)c(-c2csc(NC(=O)c3ccc(OCC4CCCO4)cc3)n2)c1 (configuration not stated) | 3.16 µM [rising, full curve] | 2.82 µM [rising, full curve]
Cc1nn(-c2ccccc2)c(C)c1NC(=O)COc1ccc(Br)cc1Cl | – | 5.62 µM [rising, full curve, poor fit]
CCOC(=O)c1c(OCCO)nn(-c2ccc(Cl)cc2)c1N | 3.98 µM [falling, full curve, poor fit] | 3.98 µM [falling, full curve, poor fit]

Reformatted as tab-separated lines: 16 of the compounds above
Compound	AC50 [1]	AC50 [2]
COc1cccc(OCCSc2nc(N)cc(N)n2)c1	–	14.1 µM [rising, single point]
CCOC(=O)N1CCN(C(=O)COc2cccc3c2CCN(Cc2ccc(F)cc2)C3=O)CC1	–	11.2 µM [rising, partial curve, poor fit]
Cc1ccc(S(=O)(=O)c2c(C)nn(C(C)(C)C)c2OC(=O)c2ccco2)cc1	–	10 µM [rising, partial curve]
CCCN1CCN(c2ncnc3sc(C(=O)Nc4c(C)cc(C)cc4C)c(C)c23)CC1	1.78 µM [falling, partial curve, poor fit]	0.0447 µM [falling, full curve, poor fit]
Cc1nc(C)c(/C(O)=C/c2nc3ccccc3oc2=O)s1	–	11.2 µM [rising, partial curve]
COc1ccc(Nc2oc(COc3ccc(C)cc3)nc2C#N)cc1	–	31.6 µM [rising, single point]
O=C(Nc1cccc(Cl)c1)NC1CC2CCC(C1)N2Cc1cccs1 (configuration not stated)	4.47 µM [falling, partial curve, poor fit]	–
O=C(c1ccc2c(c1)OCCO2)C1CCN(C(=O)c2ccc(F)c(F)c2)CC1	12.6 µM [rising, partial curve]	25.1 µM [rising, single point]
CCOC(=O)/C(C#N)=C\c1c(OCC)n(CC)c2ccccc12	–	12.6 µM [rising, single point]
O=C(c1cc2cc(Br)ccc2o1)N1CCCC1	2.82 µM [rising, single point]	–
Cn1nc(C(F)(F)F)c(C(=O)Nc2ccc(F)cc2F)c1Oc1cccc(Cl)c1	8.91 µM [rising, partial curve]	11.2 µM [rising, partial curve]
O=C(Nc1nc(-c2ccccc2)cs1)C1CCCCN1S(=O)(=O)c1ccccc1 (configuration not stated)	–	14.1 µM [rising, partial curve]
CCOC(=O)N1CCC(NC(=O)C2CCCN(C(=O)c3cc4sccc4n3C)C2)CC1 (configuration not stated)	–	20 µM [rising, partial curve, poor fit]
CC(Oc1ccc(Cl)cc1Cl)C(=O)NCCCCc1ccccc1 (configuration not stated)	11.2 µM [rising, partial curve]	22.4 µM [rising, partial curve]
Nc1ccc(S(=O)(=O)Nc2ccc(Cl)nn2)cc1	–	0.0141 µM [rising, full curve, poor fit]
COc1ccc(OC)c(-c2csc(NC(=O)c3ccc(OCC4CCCO4)cc3)n2)c1 (configuration not stated)	3.16 µM [rising, full curve]	2.82 µM [rising, full curve]
